Experimental data reported in paper PMC11170814.
These are yes or no findings as the source states them, for the method shown. In cells and extracts the contact can be indirect. Some results given as binding are weak or reduced against the parent protein; the word gives no strength.

Sequences of proteins named here, by UniProt entry; tags and fusion partners are left off. Residues count along the entry.
UniProt P02649, residues 19-317: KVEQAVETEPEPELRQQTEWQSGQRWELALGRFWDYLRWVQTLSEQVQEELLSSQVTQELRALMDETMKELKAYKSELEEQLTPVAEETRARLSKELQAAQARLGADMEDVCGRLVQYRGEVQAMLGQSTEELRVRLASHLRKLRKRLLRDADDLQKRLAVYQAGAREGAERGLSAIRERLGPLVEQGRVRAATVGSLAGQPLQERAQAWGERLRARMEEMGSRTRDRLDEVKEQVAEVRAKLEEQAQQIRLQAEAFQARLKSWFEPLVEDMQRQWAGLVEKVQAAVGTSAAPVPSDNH

Target: human ApoE3 in the cortex of hAPOE3-TR mice (human) (UniProt P02649)
Experiment: co-IP; mouse brain cortex (hAPOE2-TR or hAPOE3-TR mice); rProtein A/G Magnetic IP/Co-IP Kit; 10 ug of APOE antibody or IgG

binding: binds
B1: ERRα of mouse brain cortex (protein, UniProt O08580 1-422)
chain: MSSQVVGIEPLYIKAEPASPDSPKGSSETETEPPVTLASGPAPARCLPGHKEEEDGEGAGSGEQGSGKLVLSSLPKRLCLVCGDVASGYHYGVASCEACKAFFKRTIQGSIEYSCPASNECEITKRRRKACQACRFTKCLRVGMLKEGVRLDRVRGGRQKYKRRPEVDPLPFPGPFPAGPLAVAGGPRKTAPVNALVSHLLVVEPEKLYAMPDPASPDGHLPAVATLCDLFDREIVVTISWAKSIPGFSSLSLSDQMSVLQSVWMEVLVLGVAQRSLPLQDELAFAEDLVLDEEGARAAGLGDLGAALLQLVRRLQALRLEREEYVLLKALALANSDSVHIEDAEAVEQLREALHEALLEYEAGRAGPGGGAERRRAGRLLLTLPLLRQTAGKVLAHFYGVKLEGKVPMHKLFLEMLEAMMD
